# Reference: the supplement of paper PMC7024190
# Where a name gives a salt, the structure may show the parent alone. Some of the results follow. Single values are uncertain here, since repeats match poorly.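 The cells were human embryonic kidney cells carrying a Renilla luciferase gene, driven by the HSV-TK promoter, on a plasmid put in briefly by transfection. This is the first-round screen of about ten thousand compounds, looking for ones that raise reporter output.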
# Tested on: HEK 293FT
# Assay: log relative Renilla luciferase luminescence (reporter expression vs reference, reference not stated) (log (base not stated)); higher = higher recombinant reporter expression
# Conditions: 10 µM; time after transfection 48 h
row,Structure (SMILES),log
1,Nc1c(S(=O)(=O)O)cc(Nc2cccc3ccccc23)c2c1C(=O)c1ccccc1C2=O,0.0422
2,CC[N+](CC)(CC)CC(=O)Nc1c(C)cccc1C [QX 314 chloride],-0.195
3,N[C@@H](CSC(c1ccccc1)(c1ccccc1)c1ccccc1)C(=O)O [S-Trityl-L-cysteine],-0.0131
4,COc1cc(COc2cc(N)c(Cl)cc2C(=O)CCC2CCN(CCNS(C)(=O)=O)CC2)cc(OC)c1,0.114
5,CCCCC1CCC(c2nc(-c3ccncc3)no2)CC1 (stereo not drawn),0.0616
6,CC(C)CC(NC(=O)OCC1c2ccccc2-c2ccccc21)C(=O)O (stereo not drawn),0.0889
7,CC1(C(=O)O)NCCc2cc(O)c(O)cc21 (stereo not drawn) [Salsolinol-1-carboxylic acid],-0.464
8,O=[N+]([O-])c1cccc2c(Br)[nH]nc12 [3-Bromo-7-nitroindazole],-0.05
9,CC#CCOC(=O)C1=CCCN(C)C1 [Arecaidine but-2-ynyl ester tosylate],0.081
10,Cc1ccc(=O)n(-c2ccccc2)c1 [Pirfenidone],-0.0671
11,COC(=O)C(Cc1ccc(OCCn2c(=O)sc3cc(C(=O)c4ccccc4)ccc32)cc1)C(=O)OC,0.0419
12,CC(=O)O[C@H]1C(=O)[C@@]2(C)[C@H]([C@H](OC(=O)c3ccccc3)[C@]3(O)C[C@H](OC(=O)[C@H](O)[C@@H](NC(=O)c4ccccc4)c4ccccc4)C(C)=C1C3(C)C)[C@]1(OC(C)=O)CO[C@@H]1C[C@@H]2O [Taxol],0.114
13,CC(C)(C=O)Cc1cc(C(C)(C)C)c(O)c(C(C)(C)C)c1,-0.0293
